These are yes or no findings as the source states them, for the method shown. Binding calls can cover weak binding; strength is not graded here. For some assays here: In cells and extracts the contact can be indirect.
Legend:
C/EBPα-p42 = test: native gel or EMSA; lysates of co-transfected HEK 293 T cells in non-denaturing lysis buffer without SDS; 8% native PAGE, Tris-glycine running buffer pH 8.8; western blot
C/EBPα-EGFP = test: co-IP; HEK 293 T cells co-transfected; lysed with M-PER with protease and phosphatase inhibitors; lysate incubated with antibody-bound magnetic beads at 4 °C overnight; western blot (anti-FLAG, anti-mCherry, anti-GFP)

binding (C/EBPα-p42): binds
binding (C/EBPα-EGFP): binds
Binder: TQQKVLELTSDNDRLRKRVEQLSRELDTLRGIFRQL (domain or fragment) [mCherry-LZ]

— publication PMC10616288
